The record followed here is article PMC8384837.

Numbering of substitutions follows the chain as printed. Some of the results follow. For part of these data: At the low end of the ranking, values are background and their order means little. For part of these data: The exact form of the protein is not confirmed.

What all share (settings): yeast three-hybrid, YBZ-1, SC-Leu-His + 0.5 mM 3-AT, 4 days
The target in experiment [1] is T1, PUM1 PUF domain R2-VFQ R3-THE R4-TFR N899V + Y900F + C935T + R936H + Q939E + N971T + H972F + Q975R (UniProt Q14671).
T1 sequence: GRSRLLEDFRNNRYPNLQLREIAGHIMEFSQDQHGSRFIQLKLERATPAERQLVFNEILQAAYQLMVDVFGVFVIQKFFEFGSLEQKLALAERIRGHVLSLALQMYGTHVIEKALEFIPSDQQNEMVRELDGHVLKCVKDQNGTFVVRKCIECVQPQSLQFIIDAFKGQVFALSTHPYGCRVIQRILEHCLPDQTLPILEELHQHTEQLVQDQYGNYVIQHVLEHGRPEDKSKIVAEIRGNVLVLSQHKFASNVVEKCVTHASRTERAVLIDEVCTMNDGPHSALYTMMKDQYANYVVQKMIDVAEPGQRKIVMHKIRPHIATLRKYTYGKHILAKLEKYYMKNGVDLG

Experiment [2] deals with T2, PUM1 PUF domain R3-THE R4-TFR C935T + R936H + Q939E + N971T + H972F + Q975R (UniProt Q14671).
T2 sequence: T1 sequence with V72N, F73Y

Experiment [3] has as its target T3, PUM1 PUF domain R3-THE R4-TFR R7-NPG C935T + R936H + Q939E + N971T + H972F + Q975R + S1079N + N1080P + E1083G (Homo sapiens) (UniProt Q14671).
T3 sequence: T1 sequence with V72N, F73Y, S252N, N253P, E256G

The target in experiment [4] is T4, PUM1 PUF domain R5-PHQ R6-SWD C1007P + R1008H + N1043S + Y1044W + Q1047D (UniProt Q14671).
T4 sequence: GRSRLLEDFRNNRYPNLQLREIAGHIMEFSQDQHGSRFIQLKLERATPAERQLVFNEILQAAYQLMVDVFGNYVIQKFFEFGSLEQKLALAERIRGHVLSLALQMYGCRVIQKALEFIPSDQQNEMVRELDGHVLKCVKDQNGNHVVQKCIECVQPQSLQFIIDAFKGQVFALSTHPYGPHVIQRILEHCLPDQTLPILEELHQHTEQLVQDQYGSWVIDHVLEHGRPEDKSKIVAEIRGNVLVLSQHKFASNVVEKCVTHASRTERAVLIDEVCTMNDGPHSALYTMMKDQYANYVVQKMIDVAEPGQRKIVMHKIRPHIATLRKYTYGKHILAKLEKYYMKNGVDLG

Experiment [5] addresses T5, PUM1 PUF domain R3-THE R4-TFR R7-NPG C935T + R936H + Q939E + N971T + H972F + Q975R + S1079N + N1080P + E1083G (UniProt Q14671).
T5 sequence: T1 sequence with V72N, F73Y, S252N, N253P, E256G

The target in experiment [6] is T6, PUM1 PUF domain R6-SWD R7-NPG N1043S + Y1044W + Q1047D + S1079N + N1080P + E1083G (Homo sapiens) (UniProt Q14671).
T6 sequence: T4 sequence with P180C, H181R, S252N, N253P, E256G

For the sequence “GGCUAGAACUAGUGGAUCCCCCGGCGCCCGGCGGCUCGAGCCCGGGUAAGUUUUCGUUGUCUGCAUGCCGCCGGGCGCCAUGCCUGCAGGUCGACUCUAGAAAACAUG”, the results for the binding signal (log2 enrichment (interaction score)) in experiment [1], in experiment [2] and in experiment [3] were -5.65, under -6.79 and under -1.48, respectively.

As to “GGCUAGAACUAGUGGAUCCCCCGGCGCCCGGCGGCUCGAGCCCGGGUAAGUGUACAAAGUCUGCAUGCCGCCGGGCGCCAUGCCUGCAGGUCGACUCUAGAAAACAUG”, the values for the binding signal (log2 enrichment (interaction score)) in experiment [1], in experiment [2] and in experiment [4] were -2.63, -7.35 and -8.17, respectively.

On to “GGCUAGAACUAGUGGAUCCCCCGGCGCCCGGCGGCUCGAGCCCGGGUAAGAAUUCAUAGUCUGCAUGCCGCCGGGCGCCAUGCCUGCAGGUCGACUCUAGAAAACAUG”, for which the values for the binding signal (log2 enrichment (interaction score)) in experiment [1], in experiment [2] and in experiment [4] were -5.71, -7.42 and -7.95, respectively.

Take “GGCUAGAACUAGUGGAUCCCCCGGCGCCCGGCGGCUCGAGCCCGGGUAAGAGGAGGGAGUCUGCAUGCCGCCGGGCGCCAUGCCUGCAGGUCGACUCUAGAAAACAUG”: the binding signal (log2 enrichment (interaction score)) in experiment [1] is -5.35; in experiment [2] it was -7.06; in experiment [4] it was -7.1.

Consider “GGCUAGAACUAGUGGAUCCCCCGGCGCCCGGCGGCUCGAGCCCGGGUAAGUUGAUGUAGUCUGCAUGCCGCCGGGCGCCAUGCCUGCAGGUCGACUCUAGAAAACAUG”, for which the binding signal (log2 enrichment (interaction score)) was -4.5 in experiment [1], -6.9 in experiment [2], -2.68 in experiment [5] and -8.47 in experiment [4].

As to “GGCUAGAACUAGUGGAUCCCCCGGCGCCCGGCGGCUCGAGCCCGGGUAAGUUUUCAUAGUCUGCAUGCCGCCGGGCGCCAUGCCUGCAGGUCGACUCUAGAAAACAUG”, the binding signal (log2 enrichment (interaction score)) in experiment [1] is -5.71; in experiment [2], -7.61; in experiment [3], under -0.94; in experiment [4], under -7.22.

For the sequence “GGCUAGAACUAGUGGAUCCCCCGGCGCCCGGCGGCUCGAGCCCGGGUAAGAUUACGGAGUCUGCAUGCCGCCGGGCGCCAUGCCUGCAGGUCGACUCUAGAAAACAUG”, the binding signal (log2 enrichment (interaction score)) was -5.71 in experiment [1], -5.95 in experiment [2] and -1.03 in experiment [3].

With “GGCUAGAACUAGUGGAUCCCCCGGCGCCCGGCGGCUCGAGCCCGGGUAAGUAGAAGCCGUCUGCAUGCCGCCGGGCGCCAUGCCUGCAGGUCGACUCUAGAAAACAUG”, the binding signal (log2 enrichment (interaction score)) is -5 in experiment [1], -6.09 in experiment [2] and -7.16 in experiment [4].

Consider “GGCUAGAACUAGUGGAUCCCCCGGCGCCCGGCGGCUCGAGCCCGGGUAAGUGUAUUCAGUCUGCAUGCCGCCGGGCGCCAUGCCUGCAGGUCGACUCUAGAAAACAUG”, for which the binding signal (log2 enrichment (interaction score)) in experiment [1] was -6.36; in experiment [2], -6.95; in experiment [5], -2.77; in experiment [4], -6.94.

“GGCUAGAACUAGUGGAUCCCCCGGCGCCCGGCGGCUCGAGCCCGGGUAAGUUAAAGGAGUCUGCAUGCCGCCGGGCGCCAUGCCUGCAGGUCGACUCUAGAAAACAUG”: the values for the binding signal (log2 enrichment (interaction score)) in experiment [1], in experiment [2] and in experiment [4] were -5.61, -7.55 and -6.84, respectively.

As for “GGCUAGAACUAGUGGAUCCCCCGGCGCCCGGCGGCUCGAGCCCGGGUAAGAGUUAUAAGUCUGCAUGCCGCCGGGCGCCAUGCCUGCAGGUCGACUCUAGAAAACAUG”, the binding signal (log2 enrichment (interaction score)) in experiment [1] was -5.65; in experiment [2] it was -6.79; in experiment [5] it was -2.75; in experiment [6], -0.32.

On to “GGCUAGAACUAGUGGAUCCCCCGGCGCCCGGCGGCUCGAGCCCGGGUAAGACGAAGUAGUCUGCAUGCCGCCGGGCGCCAUGCCUGCAGGUCGACUCUAGAAAACAUG”, for which the binding signal (log2 enrichment (interaction score)) was -5.3 in experiment [1], -6.64 in experiment [2] and -7.34 in experiment [4].

With “GGCUAGAACUAGUGGAUCCCCCGGCGCCCGGCGGCUCGAGCCCGGGUAAGUGGAAGACGUCUGCAUGCCGCCGGGCGCCAUGCCUGCAGGUCGACUCUAGAAAACAUG”, the binding signal (log2 enrichment (interaction score)) was -5.33 in experiment [1], under -8.64 in experiment [2], -1.17 in experiment [3] and under -8.59 in experiment [4].

For “GGCUAGAACUAGUGGAUCCCCCGGCGCCCGGCGGCUCGAGCCCGGGUAAGAUCACGAAGUCUGCAUGCCGCCGGGCGCCAUGCCUGCAGGUCGACUCUAGAAAACAUG”, the binding signal (log2 enrichment (interaction score)) in experiment [1] was -6.01; in experiment [2], -6.73; in experiment [3], -0.77.

On to “GGCUAGAACUAGUGGAUCCCCCGGCGCCCGGCGGCUCGAGCCCGGGUAAGGGGGAGUAGUCUGCAUGCCGCCGGGCGCCAUGCCUGCAGGUCGACUCUAGAAAACAUG”, for which the binding signal (log2 enrichment (interaction score)) in experiment [1] is under -6.69; in experiment [2], -7.99; in experiment [5], -2.79; in experiment [4], under -8.73.

Regarding “GGCUAGAACUAGUGGAUCCCCCGGCGCCCGGCGGCUCGAGCCCGGGUAAGGGUAAGUAGUCUGCAUGCCGCCGGGCGCCAUGCCUGCAGGUCGACUCUAGAAAACAUG”, the binding signal (log2 enrichment (interaction score)) in experiment [1] is -4.58; in experiment [2] it was -7.55; in experiment [5], under -2.55; in experiment [4] it was -7.42.

For “GGCUAGAACUAGUGGAUCCCCCGGCGCCCGGCGGCUCGAGCCCGGGUAAGUAGAAAUAGUCUGCAUGCCGCCGGGCGCCAUGCCUGCAGGUCGACUCUAGAAAACAUG”, the binding signal (log2 enrichment (interaction score)) was -5.97 in experiment [1], -7.11 in experiment [2], -1.73 in experiment [3] and -2.76 in experiment [4].

As to “GGCUAGAACUAGUGGAUCCCCCGGCGCCCGGCGGCUCGAGCCCGGGUAAGUGCUCACUGUCUGCAUGCCGCCGGGCGCCAUGCCUGCAGGUCGACUCUAGAAAACAUG”, the binding signal (log2 enrichment (interaction score)) in experiment [1] was -6.12; in experiment [2], under -7.22; in experiment [3] it was -1.84.

As for “GGCUAGAACUAGUGGAUCCCCCGGCGCCCGGCGGCUCGAGCCCGGGUAAGAGGAUGCCGUCUGCAUGCCGCCGGGCGCCAUGCCUGCAGGUCGACUCUAGAAAACAUG”, the binding signal (log2 enrichment (interaction score)) in experiment [1] is -5.9; in experiment [2] it was -7.57; in experiment [3] it was under -1.3; in experiment [4] it was under -8.65.
